These are yes or no findings as the source states them, for the method shown. Binding seen in cells or lysates may run through a third protein. A yes stands for co-enrichment or nearness to the bait. Other partners may have been found.
Target: Flag-tagged HEY1 (hairy/enhancer-of-split related with YRPW motif 1)
Experiment: affinity purification with mass spectrometry; Flag-HEY1 transfected into U2OS cells; lysate in NETN buffer (20 mM Tris/HCl pH 8.0, 1 mM EDTA, 0.5% Nonidet P-40, 100 mM NaCl); anti-Flag M2 magnetic beads, 4°C, 90 min; LC-MS/MS of the immune complexes

binding: binds
B1: Non-Pou Domain Containing, Octamer-Binding (NONO), endogenous (protein, UniProt Q15233 1-471)
chain: MQSNKTFNLEKQNHTPRKHHQHHHQQQHHQQQQQQPPPPPIPANGQQASSQNEGLTIDLKNFRKPGEKTFTQRSRLFVGNLPPDITEEEMRKLFEKYGKAGEVFIHKDKGFGFIRLETRTLAEIAKVELDNMPLRGKQLRVRFACHSASLTVRNLPQYVSNELLEEAFSVFGQVERAVVIVDDRGRPSGKGIVEFSGKPAARKALDRCSEGSFLLTTFPRPVTVEPMDQLDDEEGLPEKLVIKNQQFHKEREQPPRFAQPGSFEYEYAMRWKALIEMEKQQQDQVDRNIKEAREKLEMEMEAARHEHQVMLMRQDLMRRQEELRRMEELHNQEVQKRKQLELRQEEERRRREEEMRRQQEEMMRRQQEGFKGTFPDAREQEIRMGQMAMGGAMGINNRGAMPPAPVPAGTPAPPGPATMMPDGTLGLTPPTTERFGQAATMEGIGAIGGTPPAFNRAAPGAEFAPNKRRRY

From paper PMC5293587
